These results are taken from PMC12644026.

The chains behind the UniProt entries cited, without tags or fusion partners.
UniProt Q9UQB8: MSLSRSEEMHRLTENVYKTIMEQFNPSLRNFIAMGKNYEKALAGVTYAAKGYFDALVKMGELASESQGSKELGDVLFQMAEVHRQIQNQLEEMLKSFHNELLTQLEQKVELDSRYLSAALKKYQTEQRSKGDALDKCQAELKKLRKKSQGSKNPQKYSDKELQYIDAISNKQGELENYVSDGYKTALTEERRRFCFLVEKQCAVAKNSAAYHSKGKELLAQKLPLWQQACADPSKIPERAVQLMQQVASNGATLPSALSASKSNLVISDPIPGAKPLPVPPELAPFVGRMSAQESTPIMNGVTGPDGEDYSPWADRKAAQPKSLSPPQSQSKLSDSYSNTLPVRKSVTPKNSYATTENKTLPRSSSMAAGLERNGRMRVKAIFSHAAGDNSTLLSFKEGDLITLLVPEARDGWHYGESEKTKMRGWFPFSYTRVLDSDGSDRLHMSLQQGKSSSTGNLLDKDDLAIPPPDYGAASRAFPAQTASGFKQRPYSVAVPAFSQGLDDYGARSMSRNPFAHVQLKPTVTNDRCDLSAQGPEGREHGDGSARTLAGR
UniProt Q9P206: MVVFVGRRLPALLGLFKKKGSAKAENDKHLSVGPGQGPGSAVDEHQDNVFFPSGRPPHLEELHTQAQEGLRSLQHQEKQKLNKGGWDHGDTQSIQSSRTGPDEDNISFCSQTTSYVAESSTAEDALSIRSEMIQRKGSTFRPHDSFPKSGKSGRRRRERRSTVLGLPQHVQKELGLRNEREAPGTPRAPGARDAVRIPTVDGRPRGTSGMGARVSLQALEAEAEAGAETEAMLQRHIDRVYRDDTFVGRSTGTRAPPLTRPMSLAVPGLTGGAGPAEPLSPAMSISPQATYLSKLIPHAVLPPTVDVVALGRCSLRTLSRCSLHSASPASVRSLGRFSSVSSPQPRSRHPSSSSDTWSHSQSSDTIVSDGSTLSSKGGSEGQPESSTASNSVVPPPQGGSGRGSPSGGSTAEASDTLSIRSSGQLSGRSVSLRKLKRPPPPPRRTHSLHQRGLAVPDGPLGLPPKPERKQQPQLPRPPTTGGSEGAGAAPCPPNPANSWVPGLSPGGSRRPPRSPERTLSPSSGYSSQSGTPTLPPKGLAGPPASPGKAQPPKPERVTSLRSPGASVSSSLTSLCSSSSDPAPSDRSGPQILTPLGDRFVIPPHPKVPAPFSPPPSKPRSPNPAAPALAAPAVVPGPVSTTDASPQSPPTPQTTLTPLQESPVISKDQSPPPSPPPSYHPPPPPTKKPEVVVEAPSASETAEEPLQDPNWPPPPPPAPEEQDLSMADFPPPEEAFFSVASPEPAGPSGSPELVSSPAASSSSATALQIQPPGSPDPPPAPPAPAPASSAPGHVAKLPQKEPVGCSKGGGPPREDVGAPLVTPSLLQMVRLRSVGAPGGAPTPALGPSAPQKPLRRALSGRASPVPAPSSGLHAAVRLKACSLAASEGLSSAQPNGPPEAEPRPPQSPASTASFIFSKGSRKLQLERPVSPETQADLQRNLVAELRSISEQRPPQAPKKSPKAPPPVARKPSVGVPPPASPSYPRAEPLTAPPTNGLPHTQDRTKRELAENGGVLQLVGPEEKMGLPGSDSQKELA

No constants are given. Whether binding was seen depends on the method and setting. In cells and extracts the contact can be indirect. Some results given as binding are weak or reduced against the parent protein; the word gives no strength.

For the assay, the target named is GST-IRSp53 (UniProt Q9UQB8). Put plainly: pull-down; GST-IRSp53 (or GST-empty) on beads incubated 1 h at 4 C with TNE lysate of HEK293 cells overexpressing KIAA1522-mCherry; immunoblot for mCherry; only the target purified. In general terms: Immunoblotting shows a protein as a band on a membrane.

In the case of “KIAA1522-mCherry (from UniProt Q9P206 1-1035)”, the binding result is “binds”.
